No constants are given. Whether binding was seen depends on the method and setting. For some assays here: In cells and extracts the contact can be indirect. Tags and fused reporters may be left off the sequences shown. Some binding calls cover weakened binding; strength is not graded here.

Protein sequences, listed by entry. Tags and fused reporters are not part of them.
UniProt Q08297: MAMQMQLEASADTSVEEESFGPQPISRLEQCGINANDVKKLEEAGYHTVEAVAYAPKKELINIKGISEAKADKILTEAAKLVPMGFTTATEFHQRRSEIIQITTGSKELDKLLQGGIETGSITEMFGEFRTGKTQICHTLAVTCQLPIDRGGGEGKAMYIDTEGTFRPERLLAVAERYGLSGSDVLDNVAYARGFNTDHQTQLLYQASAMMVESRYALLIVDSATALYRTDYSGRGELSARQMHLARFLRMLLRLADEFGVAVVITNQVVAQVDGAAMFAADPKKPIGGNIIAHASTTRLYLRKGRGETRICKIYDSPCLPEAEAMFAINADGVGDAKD

The text below walks through data of article PMC2954829.

One experiment addresses T1, GST-Sfr1 (mouse) (UniProt Q8BP27).
T1 sequence: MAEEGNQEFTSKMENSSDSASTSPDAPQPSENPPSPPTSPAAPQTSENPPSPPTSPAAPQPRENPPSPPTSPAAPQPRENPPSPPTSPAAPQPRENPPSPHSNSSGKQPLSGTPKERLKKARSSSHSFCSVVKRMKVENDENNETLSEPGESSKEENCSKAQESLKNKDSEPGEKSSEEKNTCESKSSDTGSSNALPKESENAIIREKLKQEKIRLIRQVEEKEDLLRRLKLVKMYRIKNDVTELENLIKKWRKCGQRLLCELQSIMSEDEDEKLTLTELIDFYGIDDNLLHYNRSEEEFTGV
Briefly: pull-down; GST or GST fusion from E. coli lysate immobilized to MagneGST; mixed with E. coli lysate (40 µg of proteins) holding His6-Sfr1 or Rad51; R-buffer (20 mM Tris-HCl pH 7.6, 1 mM EDTA, 100 mM NaCl, 0.1% Triton X-100, 1 mM DTT, 10% glycerol), three hours at 4°C; CBB staining and Western blotting; for Rad51 also with ethidium bromide or DNase I; only the target purified.

The target of experiment [1] is mouse Sfr1 (303 amino acids), Gal4 fusion for yeast two-hybrid (mouse) (UniProt Q8BP27). The experiment in a line: two-hybrid; Matchmaker Two-Hybrid system 3 (Clontech), Gal4AD (pGADT7) and Gal4DBD (pGBKT7) fusions; growth on SD media without leucine, tryptophan, histidine and adenine.

Consider “recombinant Rad51 (from UniProt Q08297 1-339)”, for which the binding entry with GST-Sfr1 (mouse) is “no binding”.

B1: mouse Sfr1 (303 amino acids), Gal4 fusion for yeast two-hybrid (protein, UniProt Q8BP27-2 1-303)
chain: T1 sequence
Turning to B1, in experiment [1], the binding entry was “binds”.
